From US5059679A (Shin-Etsu CHemical Co., Ltd., priority 1988, dated 1991)
Some peptides are written in HELM: one residue between dots, names in brackets for other building blocks, links after the first $.

Experiment: general procedure: solution-phase peptide synthesis; azide fragment condensation

| Substance | step yield (late stage modification step) [%] | step yield (purification step, run 1) [%] | step yield (purification step, run 2) [%] | step yield (late stage modification step, overall) [%] | step yield (late stage modification step, overall, based on the unsulfated hCCK-33) [%] | step yield (late stage modification step, overall, based on unsulfated hCCK-33) [%] |
| --- | --- | --- | --- | --- | --- | --- |
| PEPTIDE1{K.A.P.S.G.R.M.S.I.V.K.N.L.Q.N.L.D.P.S.H.R.I.S.D.R.D.Y.M.G.W.M.D.F.[am]}$$$$V2.0 | 95.4 | 31.1 | 53 |  |  |  |
| PEPTIDE1{K.A.P.S.G.R.M.S.I.V.K.N.L.Q.N.L.D.P.S.H.R.I.S.D.R.D.[Tyr(SO3H)].M.G.W.M.D.F.[am]}$$$$V2.0 | 63.9 | 39.1 | 61 | 25.0 | 15 | 13 |
